Patent publication US20230406933A1
Numbering of substitutions follows the chain as printed. Results are given in words; binding and its absence hold for the method and conditions named. Some entries that bind do so weakly or less than the wild type.

Amino acid sequences for entries named in this document (tags omitted).
UniProt Q9NZQ7: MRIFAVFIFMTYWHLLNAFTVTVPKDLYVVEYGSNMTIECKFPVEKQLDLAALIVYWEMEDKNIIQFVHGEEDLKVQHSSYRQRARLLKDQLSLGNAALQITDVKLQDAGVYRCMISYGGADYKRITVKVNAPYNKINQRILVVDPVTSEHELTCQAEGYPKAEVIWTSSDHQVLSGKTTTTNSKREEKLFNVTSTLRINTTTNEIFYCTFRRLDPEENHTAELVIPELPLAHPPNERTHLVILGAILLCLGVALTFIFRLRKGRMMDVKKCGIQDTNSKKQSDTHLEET

Experiments:
[1] = target: recombinant human PD-L1 (human) (UniProt Q9NZQ7); test: binding ELISA, PD-L1 coated, anti-Myc HRP detection
[2] = target: recombinant human PD-L1 (human) (UniProt Q9NZQ7); test: binding ELISA on coated PD-L1, anti-Myc HRP (method of Example 6)
[3] = target: recombinant human PD-L1 (human) (UniProt Q9NZQ7); test: binding ELISA on coated PD-L1 after one week at -20, 4 and 37 C, anti-Myc HRP
[4] = target: recombinant human PD-L1 (human) (UniProt Q9NZQ7); test: binding ELISA on coated PD-L1, anti-Myc HRP; sdAb stored one week at 4 C
[5] = target: recombinant human PD-L1 (human) (UniProt Q9NZQ7); test: binding ELISA on coated PD-L1, anti-Myc HRP; sdAb stored one week at 37 C
[6] = target: recombinant human PD-L1 (human) (UniProt Q9NZQ7); test: binding ELISA on coated PD-L1, anti-Myc HRP; sdAb stored one week at -20 C
[7] = target: PDL1 coated in the commercial PD1:PDL1 inhibition assay (Acro Biosystems Cat# EP-101) (Homo sapiens (Human)) (UniProt Q9NZQ7); test: Acro Biosystems PD1:PDL1 inhibition assay (EP-101): PDL1 coated, biotinylated PD1 detected with streptavidin-HRP; blocked ligand: biotinylated PD1
[8] = target: recombinant human PD-L1 (human) (UniProt Q9NZQ7); test: binding ELISA on coated PD-L1, anti-Myc HRP

Measured: binding

B1: humanised 32.1A1 clone (VHH)
VHH: QVQLVESGGGLVQPGGSLRLSCAASGRTFREYGMGWFRQAPGKGLEWVATISSSGSYSYYADSVKGRFTISRDNSKNTLYLQMNSLRAEDTAVYYCAASSLLRGSSSRAESYDSWGQGTLVTVSS
not listed: [8]
binds: all other assays above

B2: mutant sdAb clone GS656 (alanine substitution in CDR3 of humanised 32.1A1) (VHH)
VHH: B1 VHH with S111A
binds: [8] | [2]

B3: mutant sdAb clone GS659 (alanine substitution in CDR3 of humanised 32.1A1) (VHH)
VHH: B1 VHH with S114A
binds: [8] | [2]

B4: mutant sdAb clone GS645 (alanine substitution in CDR3 of humanised 32.1A1) (VHH)
VHH: B1 VHH with S99A
binds: [8] | [2]

B5: mutant sdAb clone GS651 (alanine substitution in CDR3 of humanised 32.1A1) (VHH)
VHH: B1 VHH with S105A
binds: [8] | [2]
